According to publication PMC5679654:
These are yes or no findings as the source states them, for the method shown. Binding seen in cells or lysates may run through a third protein. Some results given as binding are weak or reduced against the parent protein; the word gives no strength. Sequences can lack the tags named with a protein.

Target: T1, IRF3 (endogenous, HEK293FT nuclear extract) (human (endogenous in HEK293FT)) (UniProt Q14653)
T1 sequence: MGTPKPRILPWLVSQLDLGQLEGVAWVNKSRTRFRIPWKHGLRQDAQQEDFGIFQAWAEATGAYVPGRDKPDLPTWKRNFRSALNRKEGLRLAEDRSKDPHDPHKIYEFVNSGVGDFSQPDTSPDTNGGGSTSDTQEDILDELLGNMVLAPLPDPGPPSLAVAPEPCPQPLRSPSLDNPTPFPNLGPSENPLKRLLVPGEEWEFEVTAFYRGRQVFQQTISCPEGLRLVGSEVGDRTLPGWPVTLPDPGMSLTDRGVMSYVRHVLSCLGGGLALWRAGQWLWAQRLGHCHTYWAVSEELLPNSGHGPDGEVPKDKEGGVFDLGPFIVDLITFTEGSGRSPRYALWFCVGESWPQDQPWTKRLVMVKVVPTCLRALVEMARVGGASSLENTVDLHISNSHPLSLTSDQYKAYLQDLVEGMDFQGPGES
Experiment: co-IP; nuclear extracts of HEK293FT cells cotransfected with HA-EAP30 or HA-EAP20 and FLAG-CBP-HA for 48 h, mock-infected or infected with SeV for 8 h; IP with anti-CBP pAb or anti-IRF3 pAb, blot with anti-CBP, anti-IRF3 and anti-HA

binding: binds
B1: HA-EAP30 (protein, UniProt Q96H20 1-258)
chain: MHRRGVGAGAIAKKKLAEAKYKERGTVLAEDQLAQMSKQLDMFKTNLEEFASKHKQEIRKNPEFRVQFQDMCATIGVDPLASGKGFWSEMLGVGDFYYELGVQIIEVCLALKHRNGGLITLEELHQQVLKGRGKFAQDVSQDDLIRAIKKLKALGTGFGIIPVGGTYLIQSVPAELNMDHTVVLQLAEKNGYVTVSEIKASLKWETERARQVLEHLLKEGLAWLDLQAPGEAHYWLPALFTDLYSQEITAEEAREALP
